# Screen size: about 320,000 compounds; about 480 (0.15%) were called active. This list was built around the results that the source calls inconclusive (neither active nor inactive); the mix of calls is not that of the screen. Cut-off read from the data, not from the text of the source: active = inhibition above about 26% (passing the limit was not always enough); inconclusive = no clear call, values can overlap the other calls.
# Protein sequences, listed by entry. Tags and fused reporters are not part of them.
# UniProt O15379, whole entry, looked up: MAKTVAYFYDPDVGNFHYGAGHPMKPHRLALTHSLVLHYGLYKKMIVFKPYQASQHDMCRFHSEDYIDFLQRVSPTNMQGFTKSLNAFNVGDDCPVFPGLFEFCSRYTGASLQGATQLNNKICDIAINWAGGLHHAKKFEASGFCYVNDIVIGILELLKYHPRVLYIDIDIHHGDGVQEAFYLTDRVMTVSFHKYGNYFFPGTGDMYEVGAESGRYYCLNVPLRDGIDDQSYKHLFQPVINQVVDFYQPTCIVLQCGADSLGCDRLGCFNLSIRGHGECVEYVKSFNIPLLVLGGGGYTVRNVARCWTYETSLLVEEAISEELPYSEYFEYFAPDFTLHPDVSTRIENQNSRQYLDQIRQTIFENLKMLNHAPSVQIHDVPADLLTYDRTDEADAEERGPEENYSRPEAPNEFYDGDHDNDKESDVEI
# Target: Histone deacetylase 3 (Homo sapiens) (UniProt O15379)
# Experiment: HDAC3 deacetylase inhibitors, primary screen, biochemical, fluorescence, cell-free homogeneous (AID 2718)
# Settings: recombinant HDAC3, fluorogenic peptide/trypsin coupled, at 8.3 µM, active compounds read high
row,SMILES,inhibition
1,S=C1NC2=C(CCCC2=C2SCCCS2)C(c2ccccc2)N1 (stereo not drawn),active: 43.3%
2,CC(C)(C)OC(=O)CC[C@@H](C(=O)N1CCN(C(=O)OC(C)(C)C)CC1)n1cc(C(CO)NC(=O)OC(C)(C)C)nn1 (stereo partly drawn),inconclusive: 25.5%
3,O=C(Cc1ccc(F)cc1)OCN1C(=O)c2ccccc2C1=O,inactive: 0.994%
4,CNC(=O)NC(=O)C(OC(=O)c1cccc(S(=O)(=O)N2CCCCC2)c1)c1ccccc1 (stereo not drawn),active: 30.1%
5,O=C(CN1C(=O)c2ccccc2C1=O)Nc1cc([N+](=O)[O-])ccc1O,inconclusive: 20.5%
6,O=C(Nc1ccc(N2CCCC2)cc1)c1ccc2ccccc2c1,inconclusive: 27.4%
7,COc1ccc(CC(=O)OCC(=O)NC2CCCCC2)cc1OC,inactive: 2.58%
8,COc1ccc(N(C)C(=O)c2cn(C)c(=O)c3cc(OC)c(OC)cc23)cc1,inconclusive: 24.8%
9,COc1ccc(Cl)cc1NC(=O)C1CCCN(c2ncnc3c2nc2n3CCCCC2)C1 (stereo not drawn),inactive: -1.54%
10,CCN1/C(=C\C=C(C(C)=O)C(C)=O)Sc2ccccc21,inconclusive: 19.2%
11,COc1ccc(C(=O)Nc2cccc(/C=C(\CCC(=O)O)c3nc4ccccc4s3)c2)cc1,inconclusive: 8.71%
12,COc1ccccc1P(=O)(Cc1ccccc1)c1ccccc1 (stereo not drawn),inactive: 1.78%
13,C[C@H](NC(=O)[C@@H]1Cc2ccccc2CN1)C(=O)Nc1ccc2c(c1)OCO2,inactive: 7.17%
14,COCCn1c(C)cc(C(=O)CSc2nc3ccccc3c(=O)[nH]2)c1C,inconclusive: 23.7%
15,Cc1cccc(C(=O)n2cnnc2N)c1,active: 44%
16,CC1=NN(C(N)=S)C(=O)C1N=Nc1cccc2ccccc12 (stereo not drawn),inconclusive: 22%
17,COc1cc(N=c2ssnc2Cl)cc(OC)c1OC,active: 35.8%
18,O=C(COC(=O)Cc1ccc2c(c1)OCCO2)Nc1ccc(S(=O)(=O)N2CCCC2)cc1,inactive: 2.06%
19,CCOc1ccc(-c2nc(N)ncc2Oc2cccc(OC)c2)c(O)c1,active: 27.1%
20,O=C(Nc1ccc(N2CCCCC2)c(Cl)c1)c1cccnc1,inconclusive: 9.39%
21,CC1CC(C)CN(S(=O)(=O)c2cccc3nsnc23)C1 (stereo not drawn),inconclusive: 20.8%
22,CC(C)C[C@H](NC(=O)c1nc[nH]c1C(=O)NCC(=O)OCc1ccccc1)C(=O)OCc1ccccc1,active: 28.5%

# A run of entries from the list above, as a working copy:
row,SMILES,inhibition
11,COc1ccc(C(=O)Nc2cccc(/C=C(\CCC(=O)O)c3nc4ccccc4s3)c2)cc1,inconclusive: 8.71%
12,COc1ccccc1P(=O)(Cc1ccccc1)c1ccccc1 (stereo not drawn),inactive: 1.78%
13,C[C@H](NC(=O)[C@@H]1Cc2ccccc2CN1)C(=O)Nc1ccc2c(c1)OCO2,inactive: 7.17%

# Further structures:

row,SMILES,inhibition
1,O=C(CCc1nnc2ccc(NCc3ccco3)nn12)Nc1ccccc1F,inactive: 3.39%
2,CS(=O)(=O)Nc1ccccc1C(=O)NCc1ccco1,inactive: -9.55%
3,O=C(CCN1CCN(c2ccccc2F)CC1)Nc1cccc(F)c1,inactive: 2.54%
4,Cc1ccc(C)c(OCc2cc(C(=O)N3CCOCC3)no2)c1,inconclusive: 9.41%
5,COCCc1nc2ccc(C(=O)N3CCCCC3COC)cc2o1 (stereo not drawn),inconclusive: 14.1%
6,CC1=C([N+](=O)[O-])C(c2ccc(Cl)cc2)NC(=O)N1C (stereo not drawn),inactive: -2.04%
7,COc1ccc(O)c(/C=N/NC(=O)c2cccc(N3CCCC3=O)c2)c1,inconclusive: 22.4%
8,CC1CCC(NC(=O)N(CCCl)N=O)CC1 (stereo not drawn),inactive: -0.602%
9,COC(=O)C1=C(C)NC(=O)NC1c1ccc(-c2ccc(Cl)cc2)o1 (stereo not drawn),active: 44.7%
10,COc1ccc(C(=O)Nc2ccc(OCC(F)(F)C(F)F)c(C(F)(F)F)c2)cc1OC,inconclusive: 24.1%
11,CCC(=O)n1nc(-c2cccnc2)nc1NCc1ccc(F)cc1,active: 28.7%
12,Cc1ccc(S(=O)(=O)CCC(=O)Nc2nc(C(C)(C)C)cs2)cc1,inconclusive: 19.7%
13,C=CCn1cnc2scc(-c3ccc(CC)cc3)c2c1=O,inconclusive: 15.8%
14,COCCOC(=O)C1=C(C)NC(=O)NC1c1ccc(OC(=O)c2ccco2)c(OC)c1 (stereo not drawn),inconclusive: 53.2%
15,CCCCN(CC)S(=O)(=O)c1ccc(C(=O)Nc2nnc(COC)o2)cc1,inconclusive: 29.9%
16,C/C(=N\NC(=O)c1cccc(N/N=C(\C)c2cc(O)ccc2O)c1)c1cc(O)ccc1O,inactive: -0.312%
17,COC(=O)c1c(NC(=O)CSc2nnc(CNc3ccc(Cl)cc3)o2)sc(C)c1C,inactive: 0.504%
18,CN(CC(=O)Nc1ccc(Cl)c(C(F)(F)F)c1)C(=O)Cn1cc([N+](=O)[O-])ccc1=O,inconclusive: 16.5%
19,O=C1c2ccccc2C(=O)c2c([N+](=O)[O-])ccc(O)c21,inactive: -3.12%
20,C#CCOCCOCCOCCNc1nc(N2CCN(C(=O)CCCCCCCCCCNC(=O)Cn3cc(CCCCCN)nn3)CC2)nc(N2CCN(C(=O)CCCCCCCCCCNC(=O)[C@H]([C@@H](C)CC)n3cc(CCCCN=C(N)N)nn3)CC2)n1,inconclusive: 22.2%
21,COc1ccc(Nc2nc(NCC3CCCO3)nc(N)c2[N+](=O)[O-])cc1 (stereo not drawn),inactive: 0.125%
